“Also recorded” adds a separate entry of the source. For at least one compound, name, drawing or mass did not settle the structure.
Assays:
[1] = tested on: M202 and M207 melanoma cells; conditions: up to 10 μM; cited from earlier work
[2] = tested on: cleaved lamin A/C in WM266-4 cells; experiment: Western blotting for lamin A/C cleavage; type: cell-based, human; conditions: cells treated with 100 μM 2155-14; inhibitor 10 μM
Method: (§1) 1×10^6 of WM266-4 or M14 cells were seeded in 3 mL of E-MEM or RPMI-1640 medium supplemented with 10% FBS and 1% penicillin/streptomycin in 6 cm plates. […] After washing with TBST, the membranes were treated with chemilumiscent horseradish peroxidase detection reagent (Thermo Scientific, Cat #32209) and exposed to autoradiography film (Denville Scientific, Inc., Metuchen, N.J., USA, cat #E3018). ImageJ software (NIH, Bethesda, Md.) was used to quantify the intensity of proteins bands. The protein bands were normalized against loading controls.

[3] = tested on: LC3-II and beclin-1 in WM266-4 cells; experiment: Western blotting for LC3 and beclin-1, WM266-4; type: cell-based, human; conditions: cells treated with 100 μM 2155-14; inhibitor 10 μM
Method: as §1, with “controls (β-actin) and expressed as a fold of an untreated control.” for “controls.”

M14 cells = conditions: time course 4-72 h; time stated at the place
Method: ApoTox-Glo™ Triplex Assay which allows one to simultaneously assess the effect of small molecules on cell viability, toxicity, caspase activity, and cell cycle all in the same well (Niles, A. L.; Moravec, R. A.; Riss, T. L. In vitro viability and cytotoxicity testing and same-well multi-parametric combinations for high throughput screening. Curr Chem Genomics 2009, 3, 33-41) was utilized. First, a mixture of 2 fluorogenic substrates was added to cells. GF-AFC substrate is cell-permeant and non-lytic to cells, allowing the measurement of active protease inside live cells. The second substrate (bis-AAF-R110 Substrate) is not cell-permeable and is only cleaved when proteases are released from cells due to the loss of membrane integrity typical of cell death. This step generates an inversely correlated measurement of cell viability and toxicity. […]
M14 #5 cells were plated in 384-well format at a density of 1,250 cells in 5 μL of serum-free DMEM media and incubated at 37° C. in 5% CO2 for 4 h. […] Fluorescence was read at λEx=400 nm and λEm=505 nm for GF-AFC and λEx=485 nm and λEm=520 nm for bis-AAF-R110 on the BioTek Synergy™ 4 Multi-Mode Microplate Reader. […] The plate was incubated for 30 min at room temperature and luminescence was measured on the BioTek Synergy™ 4 Multi-Mode Microplate Reader.

In the case of CCCS(=O)(=O)Nc1ccc(F)c(C(=O)c2c[nH]c3ncc(-c4ccc(Cl)cc4)cc23)c1F [vemurafenib, reference compound], the “activity against Q61LNRAS, wild type BRAF melanoma cells” value [1] is listed as “inactive”.

In the case of O=c1cc(N2CCOCC2)oc2c(-c3ccccc3)cccc12 [LY294002, reference compound], the “cleaved lamin A/C level after autophagy inhibitor pretreatment” value [2] is reported as “very limited effect” and the “LC3-II level after autophagy inhibitor pretreatment” value [3] is reported as “very limited effect”.

For Cc1[nH]c2ccccc2c1CCNCc1ccc(/C=C/C(=O)NO)cc1 [panobinostat], the “ApoTox caspase-3/7 activity” value (M14 cells) was “no effect on viability, cytotoxicity, or caspase activity at the 4 h time point; also recorded: Caspase activity spiked at 24-48 h” and the “ApoTox viability (live cell protease)” value (M14 cells) was “no effect on viability, cytotoxicity, or caspase activity at the 4 h time point; also recorded: dose dependent loss of viability”.
